Measurements from the supplement of paper PMC10032668.
Some of the results follow. The list holds hits alone, and they repeat only in part.

Protein sequences, listed by entry. Tags and fused reporters are not part of them.
AMFR, Q9UKV5, UniProt Q9UKV5, whole entry: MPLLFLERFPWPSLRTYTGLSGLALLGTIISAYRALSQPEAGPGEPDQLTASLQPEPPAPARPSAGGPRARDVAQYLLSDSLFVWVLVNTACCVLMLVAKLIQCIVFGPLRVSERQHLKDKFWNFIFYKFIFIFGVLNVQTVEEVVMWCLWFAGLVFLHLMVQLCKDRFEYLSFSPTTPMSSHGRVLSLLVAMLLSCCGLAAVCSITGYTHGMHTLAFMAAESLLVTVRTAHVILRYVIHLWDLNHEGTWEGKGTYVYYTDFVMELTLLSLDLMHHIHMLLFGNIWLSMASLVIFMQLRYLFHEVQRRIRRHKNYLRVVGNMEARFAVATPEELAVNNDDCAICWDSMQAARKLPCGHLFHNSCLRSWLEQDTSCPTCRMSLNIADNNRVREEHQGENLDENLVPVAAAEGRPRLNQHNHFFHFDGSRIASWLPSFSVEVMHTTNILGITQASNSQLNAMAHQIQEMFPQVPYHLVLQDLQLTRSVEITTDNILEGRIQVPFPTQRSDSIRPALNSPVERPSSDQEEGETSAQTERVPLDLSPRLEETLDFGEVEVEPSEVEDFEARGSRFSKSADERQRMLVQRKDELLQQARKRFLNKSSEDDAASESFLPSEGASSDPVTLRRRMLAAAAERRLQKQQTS
ASF1B, Q9NVP2, UniProt Q9NVP2, whole entry: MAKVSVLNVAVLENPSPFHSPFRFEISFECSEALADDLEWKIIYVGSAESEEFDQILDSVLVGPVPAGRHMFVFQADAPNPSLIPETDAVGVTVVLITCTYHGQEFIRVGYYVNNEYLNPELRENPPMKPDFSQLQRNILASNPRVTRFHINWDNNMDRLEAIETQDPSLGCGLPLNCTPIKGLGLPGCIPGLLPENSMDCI
EXOSC4, Q9NPD3, UniProt Q9NPD3, whole entry: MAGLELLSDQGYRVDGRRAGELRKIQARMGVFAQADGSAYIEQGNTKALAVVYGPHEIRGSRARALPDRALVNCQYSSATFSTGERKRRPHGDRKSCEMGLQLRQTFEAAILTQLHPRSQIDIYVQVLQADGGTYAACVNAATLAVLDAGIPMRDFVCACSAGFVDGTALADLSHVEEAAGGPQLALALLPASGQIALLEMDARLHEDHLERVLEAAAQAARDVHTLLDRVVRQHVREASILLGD
HSP90AB2P, Q58FF8, UniProt Q58FF8, whole entry: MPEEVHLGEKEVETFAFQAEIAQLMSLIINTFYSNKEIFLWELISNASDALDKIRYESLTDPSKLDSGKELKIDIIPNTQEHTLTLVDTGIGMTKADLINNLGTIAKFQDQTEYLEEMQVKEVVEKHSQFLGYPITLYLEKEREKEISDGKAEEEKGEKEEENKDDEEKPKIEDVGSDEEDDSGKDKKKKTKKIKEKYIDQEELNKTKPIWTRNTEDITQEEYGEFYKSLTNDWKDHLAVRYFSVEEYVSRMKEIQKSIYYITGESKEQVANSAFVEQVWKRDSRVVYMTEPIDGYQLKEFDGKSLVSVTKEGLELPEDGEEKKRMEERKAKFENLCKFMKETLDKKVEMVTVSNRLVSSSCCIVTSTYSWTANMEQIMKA
INTS11, Q5TA45, UniProt Q5TA45, whole entry: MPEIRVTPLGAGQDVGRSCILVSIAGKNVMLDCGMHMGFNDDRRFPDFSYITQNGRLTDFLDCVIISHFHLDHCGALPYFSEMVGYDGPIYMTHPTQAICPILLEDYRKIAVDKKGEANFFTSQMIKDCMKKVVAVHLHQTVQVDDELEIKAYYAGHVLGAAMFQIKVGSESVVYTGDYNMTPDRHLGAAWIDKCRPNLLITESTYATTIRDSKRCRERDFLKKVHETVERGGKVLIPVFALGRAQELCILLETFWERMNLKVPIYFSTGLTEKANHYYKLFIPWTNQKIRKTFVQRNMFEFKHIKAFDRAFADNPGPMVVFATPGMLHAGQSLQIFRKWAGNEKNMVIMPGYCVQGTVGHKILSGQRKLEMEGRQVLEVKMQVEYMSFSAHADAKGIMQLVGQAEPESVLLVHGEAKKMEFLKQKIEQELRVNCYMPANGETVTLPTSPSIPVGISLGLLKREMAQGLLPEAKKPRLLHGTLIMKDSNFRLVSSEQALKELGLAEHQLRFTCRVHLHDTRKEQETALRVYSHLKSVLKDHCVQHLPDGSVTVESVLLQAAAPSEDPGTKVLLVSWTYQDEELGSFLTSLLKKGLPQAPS
NUP153, P49790, UniProt P49790, whole entry: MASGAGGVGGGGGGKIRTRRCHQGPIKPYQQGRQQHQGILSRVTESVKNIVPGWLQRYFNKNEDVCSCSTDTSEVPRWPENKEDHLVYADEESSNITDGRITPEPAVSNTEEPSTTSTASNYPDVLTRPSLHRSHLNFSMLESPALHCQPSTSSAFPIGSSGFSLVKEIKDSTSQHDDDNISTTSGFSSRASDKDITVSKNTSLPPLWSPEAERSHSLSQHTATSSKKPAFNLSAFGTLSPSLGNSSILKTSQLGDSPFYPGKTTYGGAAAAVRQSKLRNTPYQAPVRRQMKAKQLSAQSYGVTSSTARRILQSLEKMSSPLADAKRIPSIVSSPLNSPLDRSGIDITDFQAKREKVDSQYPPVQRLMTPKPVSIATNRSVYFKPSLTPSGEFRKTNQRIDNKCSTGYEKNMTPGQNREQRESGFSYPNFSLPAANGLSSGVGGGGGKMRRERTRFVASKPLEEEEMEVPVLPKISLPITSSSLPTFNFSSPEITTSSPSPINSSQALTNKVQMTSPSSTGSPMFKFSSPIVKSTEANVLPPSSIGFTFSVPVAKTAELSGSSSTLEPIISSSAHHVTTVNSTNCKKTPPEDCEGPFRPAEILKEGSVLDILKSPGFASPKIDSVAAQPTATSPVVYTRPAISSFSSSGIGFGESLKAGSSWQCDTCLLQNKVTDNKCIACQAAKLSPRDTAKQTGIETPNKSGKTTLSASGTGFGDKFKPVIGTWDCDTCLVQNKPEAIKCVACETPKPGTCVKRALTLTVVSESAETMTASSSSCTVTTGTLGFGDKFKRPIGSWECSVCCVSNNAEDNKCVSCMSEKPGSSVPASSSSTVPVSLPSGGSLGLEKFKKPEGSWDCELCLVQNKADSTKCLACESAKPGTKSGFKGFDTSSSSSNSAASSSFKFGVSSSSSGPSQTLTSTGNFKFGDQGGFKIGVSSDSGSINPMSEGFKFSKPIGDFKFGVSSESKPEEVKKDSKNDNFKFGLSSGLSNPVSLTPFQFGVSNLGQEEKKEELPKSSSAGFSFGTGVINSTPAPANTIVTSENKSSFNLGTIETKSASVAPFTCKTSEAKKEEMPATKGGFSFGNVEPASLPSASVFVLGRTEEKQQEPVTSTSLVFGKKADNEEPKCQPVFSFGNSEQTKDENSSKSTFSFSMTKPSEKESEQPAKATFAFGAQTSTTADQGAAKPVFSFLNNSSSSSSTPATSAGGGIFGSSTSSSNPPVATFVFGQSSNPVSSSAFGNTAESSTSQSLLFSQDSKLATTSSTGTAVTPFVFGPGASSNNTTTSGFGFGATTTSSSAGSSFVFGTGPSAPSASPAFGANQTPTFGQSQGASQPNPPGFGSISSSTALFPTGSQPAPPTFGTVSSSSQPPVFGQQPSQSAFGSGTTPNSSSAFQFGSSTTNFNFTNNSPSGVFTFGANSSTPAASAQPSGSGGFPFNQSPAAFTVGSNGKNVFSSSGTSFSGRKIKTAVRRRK
DDX54, Q8TDD1, UniProt Q8TDD1, whole entry: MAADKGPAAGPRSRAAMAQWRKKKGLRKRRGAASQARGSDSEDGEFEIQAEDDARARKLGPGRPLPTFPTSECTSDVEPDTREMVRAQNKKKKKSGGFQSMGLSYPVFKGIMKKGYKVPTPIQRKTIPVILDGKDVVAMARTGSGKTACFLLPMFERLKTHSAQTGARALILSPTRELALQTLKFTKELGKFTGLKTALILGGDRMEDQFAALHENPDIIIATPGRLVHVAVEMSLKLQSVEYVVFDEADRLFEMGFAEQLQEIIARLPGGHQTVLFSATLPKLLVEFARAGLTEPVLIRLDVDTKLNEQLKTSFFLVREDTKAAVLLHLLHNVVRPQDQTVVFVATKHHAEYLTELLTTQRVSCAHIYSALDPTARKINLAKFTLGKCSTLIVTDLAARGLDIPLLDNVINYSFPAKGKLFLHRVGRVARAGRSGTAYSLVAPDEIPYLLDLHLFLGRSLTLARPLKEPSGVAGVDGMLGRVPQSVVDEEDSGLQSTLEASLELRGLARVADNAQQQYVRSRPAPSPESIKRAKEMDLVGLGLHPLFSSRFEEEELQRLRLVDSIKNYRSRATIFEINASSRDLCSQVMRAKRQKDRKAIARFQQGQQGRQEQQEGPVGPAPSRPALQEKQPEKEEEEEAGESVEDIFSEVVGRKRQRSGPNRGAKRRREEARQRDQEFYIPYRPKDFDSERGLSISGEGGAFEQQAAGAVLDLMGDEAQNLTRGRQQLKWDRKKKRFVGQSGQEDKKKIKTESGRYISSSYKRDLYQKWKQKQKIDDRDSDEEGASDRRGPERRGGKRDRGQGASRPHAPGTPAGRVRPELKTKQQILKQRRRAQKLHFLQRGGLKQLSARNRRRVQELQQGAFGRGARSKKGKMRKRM
DYNLRB1, Q9NP97, UniProt Q9NP97, whole entry: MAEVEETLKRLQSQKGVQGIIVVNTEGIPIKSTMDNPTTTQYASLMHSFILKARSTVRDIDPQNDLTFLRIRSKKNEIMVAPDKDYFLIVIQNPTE
PHAX, Q9H814, UniProt Q9H814, whole entry: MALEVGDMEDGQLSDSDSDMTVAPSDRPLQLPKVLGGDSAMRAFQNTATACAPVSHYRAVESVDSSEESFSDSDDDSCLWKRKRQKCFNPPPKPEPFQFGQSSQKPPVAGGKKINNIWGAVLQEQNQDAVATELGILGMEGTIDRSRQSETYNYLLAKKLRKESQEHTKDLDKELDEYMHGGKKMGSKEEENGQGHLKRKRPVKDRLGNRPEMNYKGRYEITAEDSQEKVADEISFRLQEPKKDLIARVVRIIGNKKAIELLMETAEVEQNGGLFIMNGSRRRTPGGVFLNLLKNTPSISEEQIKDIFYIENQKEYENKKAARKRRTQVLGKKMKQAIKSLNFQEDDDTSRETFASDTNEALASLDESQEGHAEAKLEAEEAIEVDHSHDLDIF
PSMC5, P62195, UniProt P62195, whole entry: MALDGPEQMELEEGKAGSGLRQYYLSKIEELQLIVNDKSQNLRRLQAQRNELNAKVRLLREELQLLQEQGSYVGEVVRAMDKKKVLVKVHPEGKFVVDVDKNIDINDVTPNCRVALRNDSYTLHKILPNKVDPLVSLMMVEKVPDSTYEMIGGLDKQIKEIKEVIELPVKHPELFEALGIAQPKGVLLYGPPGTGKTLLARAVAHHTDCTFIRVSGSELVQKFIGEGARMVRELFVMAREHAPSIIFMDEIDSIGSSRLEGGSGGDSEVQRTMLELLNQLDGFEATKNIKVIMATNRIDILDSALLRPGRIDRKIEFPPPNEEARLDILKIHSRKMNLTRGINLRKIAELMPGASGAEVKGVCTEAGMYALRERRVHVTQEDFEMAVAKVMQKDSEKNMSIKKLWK
TWF1, Q12792, UniProt Q12792, whole entry: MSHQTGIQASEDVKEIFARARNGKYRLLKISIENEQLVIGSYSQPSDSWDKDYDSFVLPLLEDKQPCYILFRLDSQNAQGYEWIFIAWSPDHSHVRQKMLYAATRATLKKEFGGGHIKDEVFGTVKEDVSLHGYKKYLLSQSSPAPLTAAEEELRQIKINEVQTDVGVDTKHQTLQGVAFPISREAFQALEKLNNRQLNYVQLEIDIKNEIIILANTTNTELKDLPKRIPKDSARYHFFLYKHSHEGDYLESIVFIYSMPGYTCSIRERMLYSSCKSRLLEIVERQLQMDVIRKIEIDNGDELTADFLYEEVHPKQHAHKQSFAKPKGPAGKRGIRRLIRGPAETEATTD

Experiments:
Test in all cases: PRISMA enrichment of interactor (LFQ) in peptide spot vs all other peptide spots (log2 fold change); higher = stronger / more specific binding of the interactor to the peptide
[1] = molecular target: AMFR, Q9UKV5
Protocol: (§1)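 PRISMA: 15-aa overlapping tiles (offset 8 aa) of 60 microproteins, plus SOS1/GLUT1 control peptides, were spot-synthesized on cellulose membranes in triplicate. Membranes were incubated with benzonase-treated HEK293T lysate, and bound proteins were identified by LC-MS/MS with LFQ. Enrichment is the log2 fold change of each protein in one spot versus all other spots. Only interactors passing the significance cutoff are listed.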

[2] = molecular target: AP3S1, Q92572
Protocol: as §1

[3] = molecular target: ASF1B, Q9NVP2
Protocol: as §1

[4] = molecular target: CALML5, Q9NZT1
Protocol: as §1

[5] = molecular target: CCAR1, Q8IX12
Protocol: as §1

[6] = molecular target: CCDC137, Q6PK04
Protocol: as §1

[7] = molecular target: DDX52, Q9Y2R4
Protocol: as §1

[8] = molecular target: DECR2, Q9NUI1
Protocol: as §1

[9] = molecular target: EXOSC4, Q9NPD3
Protocol: as §1

[10] = molecular target: GNL3L, Q9NVN8
Protocol: as §1

[11] = molecular target: HSP90AB2P, Q58FF8
Protocol: as §1

[12] = molecular target: INTS11, Q5TA45
Protocol: as §1

[13] = molecular target: KNOP1, Q1ED39
Protocol: as §1

[14] = molecular target: MRPS15, P82914
Protocol: as §1

[15] = molecular target: MYCBP2, O75592
Protocol: as §1

[16] = molecular target: MYO1B, O43795
Protocol: as §1

[17] = molecular target: NCLN, Q969V3
Protocol: as §1

[18] = molecular target: NOP53, Q9NZM5
Protocol: as §1

[19] = molecular target: NTPCR, Q9BSD7
Protocol: as §1

[20] = molecular target: NUP153, P49790
Protocol: as §1

[21] = molecular target: PDF, Q9HBH1
Protocol: as §1

[22] = molecular target: RSF1, Q96T23
Protocol: as §1

[23] = molecular target: SURF6, O75683
Protocol: as §1

[24] = molecular target: TIMM8A, O60220
Protocol: as §1

[25] = molecular target: TMEM41B, Q5BJD5
Protocol: as §1

[26] = molecular target: UNC45A, Q9H3U1
Protocol: as §1

[27] = molecular target: UTP20, O75691
Protocol: as §1

[28] = molecular target: ZC3H11A, O75152
Protocol: as §1

[29] = molecular target: AMMECR1, Q9Y4X0
Protocol: as §1

[30] = molecular target: GPI, P06744
Protocol: as §1

[31] = molecular target: NUP155, O75694
Protocol: as §1

[32] = molecular target: PDCL3, Q9H2J4
Protocol: as §1

[33] = molecular target: TRMT112, Q9UI30
Protocol: as §1

[34] = molecular target: AMOT, Q4VCS5
Protocol: as §1

[35] = molecular target: APOL1, O14791
Protocol: as §1

[36] = molecular target: CCDC47, Q96A33
Protocol: as §1

[37] = molecular target: CLTA, P09496
Protocol: as §1

[38] = molecular target: DDX54, Q8TDD1
Protocol: as §1

[39] = molecular target: DYNLRB1, Q9NP97
Protocol: as §1

[40] = molecular target: FLNA, P21333
Protocol: as §1

[41] = molecular target: GATAD2A, Q86YP4
Protocol: as §1

[42] = molecular target: GTF2E2, P29084
Protocol: as §1

[43] = molecular target: HADHA, P40939
Protocol: as §1

[44] = molecular target: HUWE1, Q7Z6Z7
Protocol: as §1

[45] = molecular target: KIF20A, O95235
Protocol: as §1

[46] = molecular target: KTN1, Q86UP2
Protocol: as §1

[47] = molecular target: OSGEP, Q9NPF4
Protocol: as §1

[48] = molecular target: OXSR1, O95747
Protocol: as §1

[49] = molecular target: PHAX, Q9H814
Protocol: as §1

[50] = molecular target: PSMC5, P62195
Protocol: as §1

[51] = molecular target: PUM1, Q14671
Protocol: as §1

[52] = molecular target: RPUSD3, Q6P087
Protocol: as §1

[53] = molecular target: TP53, P04637
Protocol: as §1

[54] = molecular target: TRABD, Q9H4I3
Protocol: as §1

[55] = molecular target: TWF1, Q12792
Protocol: as §1

With NLNLSSPGIQLQQLR [EBAG9] the “PRISMA enrichment of interactor (log2)” value [1] was 8.67, the “PRISMA enrichment of interactor (log2)” value [2] was 6.48 and the “PRISMA enrichment of interactor (log2)” value [3] was 3.88. The “PRISMA enrichment of interactor (log2)” value [4] was 3.93, the “PRISMA enrichment of interactor (log2)” value [5] was 7.82 and the “PRISMA enrichment of interactor (log2)” value [6] was 6.09. For the same binder, the “PRISMA enrichment of interactor (log2)” value [7] was 5.49, the “PRISMA enrichment of interactor (log2)” value [8] was 5.02 and the “PRISMA enrichment of interactor (log2)” value [9] was 4.05. The “PRISMA enrichment of interactor (log2)” value [10] was 6.09, the “PRISMA enrichment of interactor (log2)” value [11] was 4.21 and the “PRISMA enrichment of interactor (log2)” value [12] was 4.84. For the same binder, the “PRISMA enrichment of interactor (log2)” value [13] was 5.43, the “PRISMA enrichment of interactor (log2)” value [14] was 7.34 and the “PRISMA enrichment of interactor (log2)” value [15] was 4.15. The “PRISMA enrichment of interactor (log2)” value [16] was 4.8, the “PRISMA enrichment of interactor (log2)” value [17] was 5.89 and the “PRISMA enrichment of interactor (log2)” value [18] was 5.88. For the same binder, the “PRISMA enrichment of interactor (log2)” value [19] was 6.61, the “PRISMA enrichment of interactor (log2)” value [20] was 5.51 and the “PRISMA enrichment of interactor (log2)” value [21] was 4.56. The “PRISMA enrichment of interactor (log2)” value [22] was 4.64, the “PRISMA enrichment of interactor (log2)” value [23] was 4.67 and the “PRISMA enrichment of interactor (log2)” value [24] was 4.16. The “PRISMA enrichment of interactor (log2)” value [25] was 5.64, the “PRISMA enrichment of interactor (log2)” value [26] was 4.38 and the “PRISMA enrichment of interactor (log2)” value [27] was 5.14. The “PRISMA enrichment of interactor (log2)” value [28] was 4.17.

RSGEQKKGVFIRFLI [RP11-644F5.11] was tested, and the “PRISMA enrichment of interactor (log2)” value [29] was 5.07, the “PRISMA enrichment of interactor (log2)” value [30] was 5.14 and the “PRISMA enrichment of interactor (log2)” value [31] was 5.12. The “PRISMA enrichment of interactor (log2)” value [32] was 8.83 and the “PRISMA enrichment of interactor (log2)” value [33] was 6.37.

For TSTSAPNTLRRTALS [THAP7], the “PRISMA enrichment of interactor (log2)” value [34] was 5.8, the “PRISMA enrichment of interactor (log2)” value [35] was 4.47 and the “PRISMA enrichment of interactor (log2)” value [36] was 6.93. For the same binder, the “PRISMA enrichment of interactor (log2)” value [37] was 6.95, the “PRISMA enrichment of interactor (log2)” value [38] was 6.93 and the “PRISMA enrichment of interactor (log2)” value [39] was 4.8. The “PRISMA enrichment of interactor (log2)” value [40] was 4.62, the “PRISMA enrichment of interactor (log2)” value [41] was 5.01 and the “PRISMA enrichment of interactor (log2)” value [42] was 4.71. The “PRISMA enrichment of interactor (log2)” value [43] was 4.89, the “PRISMA enrichment of interactor (log2)” value [44] was 5.93 and the “PRISMA enrichment of interactor (log2)” value [45] was 6.89. For the same binder, the “PRISMA enrichment of interactor (log2)” value [13] was 6.74, the “PRISMA enrichment of interactor (log2)” value [46] was 4.67 and the “PRISMA enrichment of interactor (log2)” value [47] was 6.41. For the same binder, the “PRISMA enrichment of interactor (log2)” value [48] was 6.52, the “PRISMA enrichment of interactor (log2)” value [49] was 5.3 and the “PRISMA enrichment of interactor (log2)” value [50] was 5.01. For the same binder, the “PRISMA enrichment of interactor (log2)” value [51] was 5.58, the “PRISMA enrichment of interactor (log2)” value [52] was 5.35 and the “PRISMA enrichment of interactor (log2)” value [53] was 4.02. The “PRISMA enrichment of interactor (log2)” value [54] was 4.62 and the “PRISMA enrichment of interactor (log2)” value [55] was 4.05.
